Test results reported in patent US20190336574A1 (TRUSTEES OF PRINCETON UNIVERSITY, published 2019).
Results are given in words; binding and its absence hold for the method and conditions named. For some of these results: Binding seen in cells or lysates may run through a third protein. Some binding calls cover weakened binding; strength is not graded here. For some of these results: Sequences can lack the tags named with a protein.

Key:
[1] = target: T1, His6-SND1ΔC (SND1 residues 1-339) (human, UniProt Q7KZF4 1-339); assay: GST pull-down, SDS-PAGE, Coomassie blue
T1 construct: not shown: N-terminal His tag (His6, His8 or His) with TEV site, pQlink vector
T1 sequence: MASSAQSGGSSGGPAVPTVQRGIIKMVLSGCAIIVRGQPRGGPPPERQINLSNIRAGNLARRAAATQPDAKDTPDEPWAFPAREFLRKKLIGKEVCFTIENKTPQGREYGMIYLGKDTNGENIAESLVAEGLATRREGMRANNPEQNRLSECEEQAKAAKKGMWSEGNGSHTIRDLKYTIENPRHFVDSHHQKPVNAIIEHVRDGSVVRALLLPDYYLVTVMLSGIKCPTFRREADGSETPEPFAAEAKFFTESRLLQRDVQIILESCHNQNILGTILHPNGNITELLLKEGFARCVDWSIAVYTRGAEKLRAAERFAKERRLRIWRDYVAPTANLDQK

[2] = target: T1, His6-SND1ΔC (SND1 residues 1-339); assay: schematic that sums up the GST pull-downs of His6-SND1ΔC
Source text: (§1) FIGS. 7A-E represents determination of key regions and residues mediating the MTDH-SND1 interaction. (FIG. 7A) Schematics of MTDH fragments and mutants with indicated SND1-binding capability. + indicates binding and − indicates no binding based on results shown below. Two putative nuclear localization signals are residues 432-451 for NLS2 and residues 561-580 for NLS3. […] (FIG. 7B) Pulldown of His6-SND1ΔC by GST-tagged MTDH fragments with indicated boundaries. The bound proteins were examined by SDS-PAGE and visualized by Coomassie blue staining. […] For (FIG. 7B) and (FIG. 7C), 1/10 of the His6-SND1ΔC input was shown, and GST alone was used as a negative control. Representative results of 3 independent experiments are shown. (FIG. 7D, FIG. 7E) Lysates from HEK293T cells expressing the indicated ectopic human SND1, AGO2 or MTDH were immunoprecipitated with anti-Myc and immunoblotted with the indicated antibodies.
To further test whether the physical interaction with SND1 is critical for the function of MTDH, detailed analysis on the interaction of the proteins was conducted. SND1 contains four N-terminal Staphylococcal nuclease (SN) repeats and a C-terminal Tudor-SN hybrid domain. […] This allowed us to use the SND1ΔC fragment for the following in vitro binding studies.

[3] = target: T2, HA-SND1, full-length human, wild type (human, UniProt Q7KZF4 1-910); assay: competition in co-IP from 293T cells with HA-SND1 and MYC-MTDH (m36 is the competitor); peptide at 50 uM; the sheet prints IP: MYC, the legend says anti-HA [26B, 26C, 26D]
T2 sequence: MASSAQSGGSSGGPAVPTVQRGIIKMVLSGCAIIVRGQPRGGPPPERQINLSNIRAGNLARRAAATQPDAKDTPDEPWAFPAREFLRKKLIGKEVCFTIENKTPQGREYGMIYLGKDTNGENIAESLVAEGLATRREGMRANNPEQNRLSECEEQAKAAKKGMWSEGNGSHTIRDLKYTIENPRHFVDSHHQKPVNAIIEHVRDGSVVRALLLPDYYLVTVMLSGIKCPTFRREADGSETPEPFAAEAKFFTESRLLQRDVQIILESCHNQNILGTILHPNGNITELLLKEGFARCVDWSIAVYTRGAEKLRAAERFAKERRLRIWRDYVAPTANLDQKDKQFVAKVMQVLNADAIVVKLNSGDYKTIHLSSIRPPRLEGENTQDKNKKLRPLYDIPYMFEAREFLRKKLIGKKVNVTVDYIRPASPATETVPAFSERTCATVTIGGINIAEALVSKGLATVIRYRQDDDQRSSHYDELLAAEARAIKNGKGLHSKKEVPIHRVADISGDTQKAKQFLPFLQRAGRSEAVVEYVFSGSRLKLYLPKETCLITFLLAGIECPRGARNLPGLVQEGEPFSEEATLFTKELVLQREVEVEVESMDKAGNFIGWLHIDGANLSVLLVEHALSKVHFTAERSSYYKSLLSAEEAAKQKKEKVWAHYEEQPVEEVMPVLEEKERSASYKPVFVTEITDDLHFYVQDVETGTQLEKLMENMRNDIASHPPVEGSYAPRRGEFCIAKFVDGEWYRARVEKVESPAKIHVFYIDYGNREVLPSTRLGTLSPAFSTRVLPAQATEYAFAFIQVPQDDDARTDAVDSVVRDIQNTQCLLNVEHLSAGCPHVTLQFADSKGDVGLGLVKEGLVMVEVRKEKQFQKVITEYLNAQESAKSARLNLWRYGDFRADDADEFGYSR
Description: 293 T cells were co-transfected with HA-SND1 and MYC-MTDH. After 48 hours, the cells were collected and subject to immunoprecipitation assay. Cell lysate was incubated with anti-HA antibody or IgG overnight followed by a two hour incubation with Protein A/G beads to pull down HA-SND1 protein. The beads were washed with lysis buffer and split into five fractions.
The elution fractions and beads were collected for western blot. (FIGS. 26C and 26D) Cell lyaste was split into 6 fractions. One of the fractions was incubated with IgG and the rest were incubated with anti-HA antibody plus either buffer or indicated peptides. After 24 hours, the lysate was incubated with Protein A/G beads then the beads was washed followed by wash buffer. 50 uM of peptides was used in all the assays.

[4] = target: T1, His6-SND1ΔC (SND1 residues 1-339); assay: GST pull-down of His6-SND1ΔC, SDS-PAGE, Coomassie
Source text: as §1
TPM1 comprises mutations D389R, D393R and W394D. TPM2 comprises mutations E399R, E400R and W401D. TPM3 comprises mutations W404D, D406R and E407R. […] The mutations are also set out in Table 3.

For YQWDVSRNQPYIDDEWSGLNGLSSADPNSDWNAPAEEWGNWVDE [GST-MTDH 364-407], the binding [1] was “binds” and the binding [2] was “binds”.

B1: Peptide-401A (PNSDWNAPAEEAGNW) (peptide)
peptide: PNSDWNAPAEEAGNW
notes: also called peptide comprising the single point mutation W401A
In the case of B1, the binding [3] is reported as “binds”.

For SSADPNSDWNAPAEEWGNWVDE (peptide, not shown: a dimerising Fc or GST) [GST-MTDH (386-407), wild type], the binding [4] was “binds”.
